According to publication PMC8249747:
The exact form of at least one protein or probe is not confirmed. Protein sequences can lack the tags named with them.

Target: T1, RspR (YdfH) (Escherichia coli K-12 W3110 type-A) (UniProt P0ACM2)
T1 sequence (looked up, limits assumed): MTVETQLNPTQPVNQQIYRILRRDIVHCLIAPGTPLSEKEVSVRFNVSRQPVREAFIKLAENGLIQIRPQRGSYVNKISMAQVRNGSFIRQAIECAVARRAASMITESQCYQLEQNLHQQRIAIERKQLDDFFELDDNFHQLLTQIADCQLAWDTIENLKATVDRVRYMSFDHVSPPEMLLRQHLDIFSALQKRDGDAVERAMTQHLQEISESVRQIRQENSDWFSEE
Test: EMSA
Conditions: EMSA: gel shift buffer (composition not given), 37 C 30 min, PAGE, GelRed; recombinant protein; protein details: His-tag (pET21a vector); label: none (GelRed stain); probe letters rebuilt from the primers and the genome

“GAAATTATTGGATGCTTTCTGCCCTGGTTGTGGTTAAAACGAAACGCCAGTATCTGGCTGTTGCTTCCGGCGGGGATTTCACTGGCGCTGTTTGTCTGGTTGTTAACGTTGCATCCAGCGGCGAGTGGGCGTGTTTACGCGGCTTATGGTGGCGTTTATGTCTGCACGGCGTTGATGTGGCTGCGCGTTGTGGATGGCGTGAAACTGACTCTTTATGACTGGACGGGTGCGTTGATTGCGCTTTGCGGCATGTTGATCATTGTTGCGGGCTGGGGGCGCACGTAGGAACATAAATCCATTTTATCAATAAGATAAGAGGAAGTGTCAGCTGACAAAAGGTATTCTATTTCATCTTTTGTCAACCATTCACAGCGCAAATATACGCCTTTTTTTGTGATCACTCCGGCTTTTTTCGATCTTTATACTTGTATGGTAGTAGCTCAGTTGCGTAGATTTCATGCATCACGACAAGCGATGCAAGGAATCGAAC (double strand) [rspA promoter probe (gel shift)]”: binds.
